{"source": "PubChem BioAssay AID743454 – Peter MacCallum Cancer Centre – 2014", "screen": "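Genes whose loss kills vorinostat-resistant colon cancer cells under vorinostat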 (primary screen)", "system": "human HCT116-VR colon cancer cells, selected for vorinostat resistance", "reagents": "siRNA pool against human genes, 40 nM siRNA pool", "duration": "vorinostat for 24 h, read-out about 72 h after transfection", "conditions": "vorinostat at 2.5 µM final", "read-out": "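Two measures, CellTiter-Fluor viability and luminescent caspase 3/7 activity, each as fold change against same-plate mock wells, mean of duplicates, then screen-wide robust z-score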", "direction": "viability robust z-score: higher = more viable cells than screen typical; caspase robust z-score: higher = more caspase 3/7 activity than screen typical", "active means": "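Hits are knock-downs in viability class RV1/RV2 or caspase class CA1/CA2, excluding ones that killed cells in the no-drug cell-count arm; hits then retested with single siRNAs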", "note": "Shown is a random part of about 18,000 deposited reagents. 450 of all reagents (2.5%) count as active. 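Single biological run; no consistent viability z cut-off exists, so the class columns, not z-scores, define the calls.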 A number with no mark means an inactive call."}
{"target gene": "CITED2", "viability hit class": "no change", "caspase hit class": "no change", "viability robust z-score": 0.55, "caspase robust z-score": 0.88}
{"target gene": "SIVA1", "viability hit class": "no change", "caspase hit class": "no change", "viability robust z-score": 0.23, "caspase robust z-score": -0.98}
{"target gene": "MFSD6L", "viability hit class": "no change", "caspase hit class": "no change", "viability robust z-score": 0.04, "caspase robust z-score": -0.32}
{"target gene": "COL22A1", "viability hit class": "no change", "caspase hit class": "no change", "viability robust z-score": 0.96, "caspase robust z-score": -0.17}
{"target gene": "SLC7A5", "viability hit class": "no change", "caspase hit class": "no change", "viability robust z-score": -1.29, "caspase robust z-score": -0.59}
{"target gene": "ADCY6", "viability hit class": "no change", "caspase hit class": "no change", "viability robust z-score": 0.68, "caspase robust z-score": 0.48}
{"target gene": "MAP3K11", "viability hit class": "no change", "caspase hit class": "no change", "viability robust z-score": -0.43, "caspase robust z-score": -0.55}
{"target gene": "PRB2", "viability hit class": "no change", "caspase hit class": "no change", "viability robust z-score": -0.96, "caspase robust z-score": -0.24}
{"target gene": "ME2", "viability hit class": "no change", "caspase hit class": "no change", "viability robust z-score": 0.54, "caspase robust z-score": -0.38}
{"target gene": "HNRNPA1", "viability hit class": "no change", "caspase hit class": "no change", "viability robust z-score": -0.59, "caspase robust z-score": -0.86}
{"target gene": "SKA1", "viability hit class": "no change", "caspase hit class": "no change", "viability robust z-score": -0.22, "caspase robust z-score": -0.02}
{"target gene": "DBR1", "viability hit class": "no change", "caspase hit class": "no change", "viability robust z-score": -0.35, "caspase robust z-score": 0.7}
{"target gene": "ZDHHC4", "viability hit class": "no change", "caspase hit class": "no change", "viability robust z-score": 0.16, "caspase robust z-score": 1.43}
{"target gene": "ARHGEF2", "viability hit class": "no change", "caspase hit class": "no change", "viability robust z-score": -1.68, "caspase robust z-score": -0.16}
{"target gene": "CHST7", "viability hit class": "no change", "caspase hit class": "no change", "viability robust z-score": 0.2, "caspase robust z-score": -1.1}
{"target gene": "ATG5", "viability hit class": "no change", "caspase hit class": "no change", "viability robust z-score": 0.68, "caspase robust z-score": 0.05}
{"target gene": "CUEDC1", "viability hit class": "no change", "caspase hit class": "no change", "viability robust z-score": 0.17, "caspase robust z-score": 0.9}
{"target gene": "ZNF132", "viability hit class": "no change", "caspase hit class": "no change", "viability robust z-score": 0.42, "caspase robust z-score": 3.35}
{"target gene": "OR4F6", "viability hit class": "no change", "caspase hit class": "no change", "viability robust z-score": 0.66, "caspase robust z-score": -0.72}
{"target gene": "RASIP1", "viability hit class": "no change", "caspase hit class": "no change", "viability robust z-score": -3, "caspase robust z-score": 4.83}
{"target gene": "VANGL2", "viability hit class": "no change", "caspase hit class": "no change", "viability robust z-score": -0.48, "caspase robust z-score": 1.14}
